“And” between values parts separate entries of the source, which are not always exact repeats. Equal entries are not always repeated. ± gives the standard deviation of the averaged measurements. The full ranking holds about 3,800 compounds; the median of “cell shape (eccentricity) Z-score vs DMSO control” is about 1.1, and the lowest 2% start at about -4.7. The list shows a part of the results.
system: human monocyte-derived macrophages (M0); assay: cell shape (eccentricity) Z-score vs DMSO control; higher = more elongated, M2-like morphology; conditions: 20 µM; 24 h; macrophage state: M0 (M-CSF)

Row | SMILES | cell shape (Z-score)
1 | CCCCCCCCCCCC1C(=O)C(=O)CC(=O)C1=O | -0.419
2 | CC(=O)O[C@@H]1c2c(ccc3ccc(=O)oc23)OC(C)(C)[C@@H]1OC(=O)CC(C)C | 0.0271
3 | COC(=O)[C@@]1(C)CC[C@]2(C(=O)O[C@@H]3O[C@H](CO)[C@@H](O)[C@H](O)[C@H]3O)CC[C@]3(C)C(=CCC4[C@@]5(C)C[C@H](O)[C@H](O[C@@H]6OC[C@@H](O)[C@H](O)[C@H]6O)[C@@](C)(CO)C5CC[C@]43C)[C@@H]2C1 (some centres undefined) | 1.93 ± 2.4
4 | Cn1cncc1[C@@](N)(c1ccc(Cl)cc1)c1ccc2c(c1)c(-c1cccc(Cl)c1)cc(=O)n2C | 5.12
5 | COc1cc([C@@H]2c3cc4c(cc3C(O[C@@H]3O[C@@H]5CO[C@@H](c6cccs6)OC5[C@H](O)[C@H]3O)C3COC(=O)[C@@H]32)OCO4)cc(OC)c1O (some centres undefined) | 4.28
6 | COc1ccc2c(c1)c(CC(=O)O)c(C)n2C(=O)c1ccc(Cl)cc1 | 3.43
7 | C/C=C1/CN2CCC1C(CO)(C(=O)OC)c1[nH]c3ccccc3c1C2 (centres undefined) | -0.866
8 | CCCN(CC1CC1)c1nc(C)nc(Nc2c(Cl)cc(Cl)cc2Cl)c1Cl | 1.02
9 | COc1cc2oc(=O)ccc2cc1CC(O)C(C)(C)O (centres undefined) | 2.48
10 | CC(C)(C)NCC(O)COc1nsnc1N1CCOCC1 (centres undefined) | 1.68
11 | CCC1(C)CC(=O)NC1=O (centres undefined) | 9.26
12 | CC(=O)Nc1ccc(OC(C)=O)cc1 | -0.926
13 | O=C1OC2(c3ccc(O)cc3Oc3cc(O)ccc32)c2ccccc21 | 2.01
14 | Cc1nccn1C[C@@H]1CCc2c(c3ccccc3n2C)C1=O | 0.13
15 | CC(NCCc1ccc(O)cc1)C(O)c1ccc(O)cc1 (centres undefined) | 3.05
16 | O=C(O)CN1C(=O)c2cccc3cccc(c23)C1=O | -6.86
17 | CC1(C)CC[C@]2(C(=O)OC3OC(CO)C(OC4OC(CO)C(O)C(O)C4O)C(O)C3O)CC[C@]3(C)C(=CCC4[C@@]5(C)CC[C@H](OC6OC(C(=O)O)C(O)C(O)C6O)C(CO)(CO)C5CC[C@]43C)[C@@H]2C1 (some centres undefined) | 1.87 ± 2.7
18 | C=C[C@@]1(C)CCC2=C([C@H]1OC(C)=O)[C@H](OC(C)=O)CC1[C@](C)(C(=O)OC)CC[C@H](OC(C)=O)[C@]21C (some centres undefined) | 1.6
19 | COc1c(O)cc2c(=O)oc3c(OC)c(O[C@@H]4OC[C@@H](O)[C@H](O)[C@H]4O)cc4c(=O)oc1c2c34 | 0.649 ± 1.7
20 | CC/C=C/c1ccc(C)cc1CCCCCC(=O)O | 3.58
21 | CC[C@@H](CO)Nc1nc(NCc2ccccc2)c2ncn(C(C)C)c2n1 | 2.91
22 | CC(C)C[C@](CC(=O)OCc1ccc(O[C@@H]2O[C@H](CO)[C@@H](O)[C@H](O)[C@H]2O)cc1)(O[C@@H]1O[C@H](CO)[C@@H](O)[C@H](O)[C@H]1O)C(=O)OCc1ccc(O[C@@H]2O[C@H](CO)[C@@H](O)[C@H](O)[C@H]2O)cc1 | 0.0281
23 | O=C1c2c(O)ccc(O)c2C(=O)c2c(NCCNCCO)ccc(NCCNCCO)c21 | -3.95
24 | CCn1cc(C(=O)O)c(=O)c2cc(F)c(N3CCNCC3)nc21 | -1.1
25 | CCOC(=O)CC(=O)N1CCSC1COc1ccccc1OC (centres undefined) | 0.257
26 | COC1=CC(=O)O/C1=C(/OC)[C@@H]1O[C@H]1c1ccccc1 | 1.67
27 | COc1cc2c(cc1OC)-c1c/c(=N\c3c(C)cc(C)cc3C)n(C)c(=O)n1CC2 | -0.597

Four structures out of the list, sorted by heavy-atom count, descending:
Row | SMILES | cell shape (Z-score)
17 | CC1(C)CC[C@]2(C(=O)OC3OC(CO)C(OC4OC(CO)C(O)C(O)C4O)C(O)C3O)CC[C@]3(C)C(=CCC4[C@@]5(C)CC[C@H](OC6OC(C(=O)O)C(O)C(O)C6O)C(CO)(CO)C5CC[C@]43C)[C@@H]2C1 (some centres undefined) | 1.87 ± 2.7
5 | COc1cc([C@@H]2c3cc4c(cc3C(O[C@@H]3O[C@@H]5CO[C@@H](c6cccs6)OC5[C@H](O)[C@H]3O)C3COC(=O)[C@@H]32)OCO4)cc(OC)c1O (some centres undefined) | 4.28
7 | C/C=C1/CN2CCC1C(CO)(C(=O)OC)c1[nH]c3ccccc3c1C2 (centres undefined) | -0.866
26 | COC1=CC(=O)O/C1=C(/OC)[C@@H]1O[C@H]1c1ccccc1 | 1.67

More records follow.

Row | SMILES | cell shape (Z-score)
28 | O=C1CN(/N=C/c2ccc(-c3ccc([N+](=O)[O-])cc3)o2)C(=O)N1 | 2.87
29 | COc1cc(O)c2c(=O)c(OC)c(-c3ccc(OC)c(OC)c3)oc2c1 | -4.42 and -3.16
30 | CCCn1c(=O)c2nc[nH]c2n(-c2ccc(Cl)cc2)c1=O | 0.799
31 | Nc1nc(Nc2ccc3c(c2)CC[C@@H](N2CCCC2)CC3)nn1-c1cc2c(nn1)-c1ccccc1CCC2 | 11.4
32 | NS(=O)(=O)c1cc2c(cc1C(F)(F)F)NCNS2(=O)=O | 1.99
33 | CC1(C)CC[C@]2(C(=O)O)CC[C@]3(C)C(=CCC4[C@@]5(C)C[C@@H](O)[C@H](O)[C@](C)(CO)C5CC[C@]43C)[C@@H]2[C@@H]1O (some centres undefined) | 0.0107
34 | C[C@@H]1O[C@@H](O[C@H]2CC[C@@]3(C)C(CC[C@]4(C)C3CC=C3C5CC(C)(C)CC[C@]5(C(=O)O[C@@H]5O[C@H](CO)[C@@H](O)[C@H](O)[C@H]5O)CC[C@]34C(=O)O)C2(C)C)[C@H](O)[C@H](O)[C@H]1O (some centres undefined) | -0.584
35 | C/C=C(\C)C(=O)O[C@H]1C=CC(=O)O[C@H]1/C=C/[C@H](O)[C@H](C)O | -0.251
36 | CCCn1c(=O)c2[nH]c(-c3ccc(OCC(=O)Nc4ccc(C#N)cc4)cc3)nc2n(CCC)c1=O | 2.15
37 | COc1cc(O)c(CC=C(C)C)cc1C(=O)/C=C/c1ccc(O)c(CC=C(C)C)c1 | 1.1
38 | COc1cc(-c2ccc(/N=N/c3ccc4c(S(=O)(=O)O)cc(S(=O)(=O)O)c(N)c4c3O)c(OC)c2)ccc1/N=N/c1ccc2c(S(=O)(=O)O)cc(S(=O)(=O)O)c(N)c2c1O | 1.91
39 | CC(C)NC(=O)Nc1ccc2c(c1)C(=O)N([C@H](C)CO)C[C@@H](C)[C@H](CN(C)S(=O)(=O)c1ccc(Cl)cc1)O2 | 0.985
40 | CCC[C@@H](N[C@@H](C)C(=O)N1[C@@H](C(=O)O)C[C@@H]2CCCC[C@@H]21)C(=O)OCC | -2.33
41 | COC(=O)C1=COC(O[C@@H]2O[C@H](CO)[C@@H](O)[C@H](O)[C@H]2O)[C@H]2[C@@H]1[C@H](OC(=O)CCc1ccc(O)cc1)C[C@]2(C)O (some centres undefined) | -0.0202 ± 0.73
42 | COC(=O)Cc1cccn1C | 0.68
43 | O=C(NCCCCCCNC(=O)ON=C1CCCCC1)ON=C1CCCCC1 | 0.0221
44 | N=C(N)NC(=N)Nc1cccc(Cl)c1 | 3.22
45 | O=C1CCC=CC1(O)C(=O)OCc1cccc(O)c1OC1OC(CO)C(O)C(O)C1O (centres undefined) | 1.92
46 | Cc1nc2ccccn2c(=O)c1CCN1CCC(C(=O)c2ccc(F)cc2)CC1 | 2.15
47 | COc1nccnc1NS(=O)(=O)c1ccc(NC(=O)/C=C/c2ccc([N+](=O)[O-])s2)cc1 | 6.12
48 | O=c1c2ccccc2[nH]c(=S)n1CCN1CCC(=C(c2ccc(F)cc2)c2ccc(F)cc2)CC1 | 1.1
49 | CC1(C)C(=O)C=CC2(C)C1CC(O)C1(C)C3=CCC(c4ccoc4)C3(C)CCC21 (centres undefined) | 0.444
50 | CCCCCC1OC2=C(C(=O)N(OC)C2CSCC(O)C(=O)O)C(O)C1(C)O (centres undefined) | 1.51
51 | O=C(/C=C/c1ccccc1)c1ccc(O)cc1 | 9.91
52 | COc1ccc(NC(=O)Nc2ccc3c(c2)C(=O)N([C@@H](C)CO)C[C@H](C)[C@H](CN(C)Cc2ccc4c(c2)OCO4)O3)cc1 | 3.81
53 | CO[C@@H]1CC(OC2CCC3(C)C(CCC45CCC(C6=CC(=O)OC6)C(C)(CCC43)C5=O)C2)O[C@H](C)[C@@H]1O[C@@H]1O[C@H](CO[C@@H]2O[C@H](CO)[C@@H](O)[C@H](O)[C@H]2O)[C@@H](O)[C@H](O)[C@H]1O (some centres undefined) | 1.71
54 | COC(=O)C1=CO[C@@H](O[C@@H]2O[C@H](CO)[C@@H](O)[C@H](O)[C@H]2O)[C@@H]2[C@@H]3CN4CCc5c([nH]c6ccccc56)[C@]4(C[C@H]12)O3 | -1.89

Row | SMILES | cell shape (Z-score)
55 | CC(=O)c1cc(C)c(O)c(COC2OC(CO)C(O)C(O)C2O)c1O (centres undefined) | 0.904 ± 1.4
56 | CN(C)CCOC(=O)C(c1ccccc1)C1(O)CCCC1 (centres undefined) | -0.539
57 | COC(=O)Cc1c(CCC(=O)O)oc2cc(C)cc(O)c2c1=O | 1.09
58 | C=C1C(=O)O[C@@H]2C3C(=C(C)[C@@H](O)[C@@H](OC(=O)/C(=C/C)COC(C)=O)[C@@H]12)C(=O)[C@H]1O[C@@]31C (some centres undefined) | -0.66
59 | C=CC(C)(O)CC[C@H]1C(=C)CCC2[C@](C)(C(=O)O)CCC[C@@]21C (some centres undefined) | 1.88
60 | CC(=O)OC[C@]12[C@@H](OC(C)=O)C[C@@H]3[C@@H](OC(=O)c4ccccc4)[C@]1(OC3(C)C)[C@H](C)C[C@H](OC(=O)c1ccccc1)[C@@H]2OC(C)=O | 2.48
61 | COC(=O)c1cc2cc(O)c(-c3c(O)cc4cc(C(=O)OC)oc(=O)c4c3O)c(O)c2c(=O)o1 | -2.17
62 | OCC(CO)N[C@H]1C[C@](O)(CO)[C@@H](O)[C@H](O)[C@H]1O | 2.43
63 | COC(=O)C[C@H]1C(C)(C)C(=O)[C@@H]2CC3=C(CC[C@]4(C)C3=CC(=O)O[C@H]4c3ccoc3)[C@@]1(C)C2=O | 2.15
64 | Cc1c(Cn2c(C)nc3c(C(=O)O)cc(N4CCOCC4)cc32)cccc1C(F)(F)F | 1.7
65 | NC1(c2ccc(-c3nc4ccn5c(=O)[nH]nc5c4cc3-c3ccccc3)cc2)CCC1 | 1.08
66 | C[C@@](Cc1ccc(O)c(O)c1)(NN)C(=O)O | 1.55
67 | OC(CCN1CCCCC1)(c1ccccc1)c1ccccc1 | 0.635
68 | Clc1ccc2c(c1)C(N1CCNCC1)=Nc1ccccc1O2 | 0.271
69 | Cc1c(C(=O)NN2CCOCC2)nn(-c2ccc(Cl)cc2Cl)c1-c1ccc(I)cc1 | -0.191
70 | CC(=O)O[C@@H]1c2c(ccc3ccc(=O)oc23)OC(C)(C)[C@@H]1OC(=O)C=C(C)C | -0.291 ± 0.17
71 | CCN(CC)CCNC(=O)c1cc(Br)c(N)cc1OC | 2.01
72 | CC(C)C1C(=O)N(S(C)(=O)=O)[C@@H]2CCN(C(=O)/C=C/CN3CCCCC3)[C@@H]12 (some centres undefined) | 1.03
73 | Cc1ccc2c(c1O)C(=O)c1ccc(O[C@@H]3O[C@H](CO[C@@H]4OC[C@@H](O)[C@H](O)[C@H]4O)[C@@H](O)[C@H](O)[C@H]3O)cc1C2=O | 1.53 ± 0.64
74 | c1ccc2nc(C3=NCCN3)ccc2c1 | 0.187
75 | CC(C)C1CCC2(C)CCC(O)C(C)(O)C2C1OC(=O)/C=C/c1ccccc1 (centres undefined) | 0.667 ± 2
76 | CCN1CCN(c2cc3c(cc2F)c(=O)c(C(=O)O)cn3C2CC2)CC1 | -0.0252
77 | O=C1c2c(O)cc(O)cc2O[C@@H](c2ccc(O)cc2)[C@@H]1c1c(O)cc(O)c2c(=O)cc(-c3ccc(O)cc3)oc12 | 0.523
78 | CC(Cc1ccc(O)c(O)c1)(NN)C(=O)O (centres undefined) | -0.173
79 | CC(C)C[C@@H](NC(=O)OCC1c2ccccc2-c2ccccc21)C(=O)O | 1.4

Source: the supplement of paper PMC7858590
